Test results taken from publication PMC4881948, “X-Ray Solution Scattering Study of Four Escherichia coli Enzymes Involved in Stationary-Phase Metabolism” (PLoS ONE, 2016).
Results are given in words; binding and its absence hold for the method and conditions named.

How the values were obtained:
Assay in all cases: SAXS; mixed samples PPase/FbaB, PPase/GadA, PPase/KduI; data compared with the volume-fraction weighted sum of the data of the single components; both purified
[1] = target: T1, 5-keto 4-deoxyuronate isomerase (KduI) from E. coli (E. coli) (UniProt Q46938)
T1 sequence: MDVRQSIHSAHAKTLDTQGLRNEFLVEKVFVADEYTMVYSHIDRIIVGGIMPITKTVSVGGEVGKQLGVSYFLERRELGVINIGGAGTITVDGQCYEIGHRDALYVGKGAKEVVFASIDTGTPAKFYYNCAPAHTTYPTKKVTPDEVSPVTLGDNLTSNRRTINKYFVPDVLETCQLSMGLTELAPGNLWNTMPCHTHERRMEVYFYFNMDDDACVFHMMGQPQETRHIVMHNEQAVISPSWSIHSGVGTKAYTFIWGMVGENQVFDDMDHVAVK

[2] = target: T2, Class I fructose-1,6-bisphosphate aldolase (FbaB) from E. coli (E. coli) (UniProt P0A991)
T2 sequence: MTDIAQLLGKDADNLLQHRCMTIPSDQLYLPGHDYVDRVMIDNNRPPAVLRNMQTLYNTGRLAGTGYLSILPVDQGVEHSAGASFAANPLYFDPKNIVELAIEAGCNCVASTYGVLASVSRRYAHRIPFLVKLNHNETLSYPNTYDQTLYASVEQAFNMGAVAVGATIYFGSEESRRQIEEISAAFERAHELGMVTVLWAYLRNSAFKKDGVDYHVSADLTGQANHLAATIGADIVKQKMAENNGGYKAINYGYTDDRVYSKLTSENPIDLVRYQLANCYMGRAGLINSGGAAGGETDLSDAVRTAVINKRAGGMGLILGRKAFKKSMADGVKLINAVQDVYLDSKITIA

[3] = target: T3, glutamate decarboxylase (GadA) from E. coli (E. coli) (UniProt P69908)
T3 sequence: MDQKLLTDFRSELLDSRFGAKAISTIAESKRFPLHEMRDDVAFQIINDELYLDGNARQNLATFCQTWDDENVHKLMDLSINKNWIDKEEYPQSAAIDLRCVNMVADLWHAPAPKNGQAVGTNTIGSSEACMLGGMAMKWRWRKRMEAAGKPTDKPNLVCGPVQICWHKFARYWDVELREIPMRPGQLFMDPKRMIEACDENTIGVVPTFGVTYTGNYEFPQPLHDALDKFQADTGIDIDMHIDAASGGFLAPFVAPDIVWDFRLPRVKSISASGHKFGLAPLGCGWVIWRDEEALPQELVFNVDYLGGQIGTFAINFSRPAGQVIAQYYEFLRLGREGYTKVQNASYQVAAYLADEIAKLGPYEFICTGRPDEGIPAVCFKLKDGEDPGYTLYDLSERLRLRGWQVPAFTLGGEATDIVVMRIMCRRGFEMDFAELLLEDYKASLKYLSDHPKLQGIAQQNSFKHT

binding [1]: no binding
binding [2]: no binding
binding [3]: no binding
B1: inorganic pyrophosphatase (PPase) from E. coli (enzyme)
chain: SLLNVPAGKDLPEDIYVVIEIPANADPIKYEIDKESGALFVDRFMSTAMFYPCNYGYINHTLSLDGDPVDVLVPTPYPLQPGSVIRCRPVGVLKMTDEAGEDAKLVAVPHSKLSKEYDHIKDVNDLPELLKAQIAHFFEHYKDLEKGKWVKVEGWENAEAAKAEIVASFERAKNK
notes: inorganic pyrophosphatase, E. coli; Hexamer in solution by SAXS
